The source of these data is publication PMC11658772.

These are yes or no findings as the source states them, for the method shown. Binding seen in cells or lysates may run through a third protein. Some entries that bind do so weakly or less than the wild type. Where a sequence is shown, tags or fusion partners need not be part of it.

Experiment [1] has as its target T1, MSL1^Δ8-20-3xHA (Drosophila melanogaster) (UniProt P50535).
T1 sequence: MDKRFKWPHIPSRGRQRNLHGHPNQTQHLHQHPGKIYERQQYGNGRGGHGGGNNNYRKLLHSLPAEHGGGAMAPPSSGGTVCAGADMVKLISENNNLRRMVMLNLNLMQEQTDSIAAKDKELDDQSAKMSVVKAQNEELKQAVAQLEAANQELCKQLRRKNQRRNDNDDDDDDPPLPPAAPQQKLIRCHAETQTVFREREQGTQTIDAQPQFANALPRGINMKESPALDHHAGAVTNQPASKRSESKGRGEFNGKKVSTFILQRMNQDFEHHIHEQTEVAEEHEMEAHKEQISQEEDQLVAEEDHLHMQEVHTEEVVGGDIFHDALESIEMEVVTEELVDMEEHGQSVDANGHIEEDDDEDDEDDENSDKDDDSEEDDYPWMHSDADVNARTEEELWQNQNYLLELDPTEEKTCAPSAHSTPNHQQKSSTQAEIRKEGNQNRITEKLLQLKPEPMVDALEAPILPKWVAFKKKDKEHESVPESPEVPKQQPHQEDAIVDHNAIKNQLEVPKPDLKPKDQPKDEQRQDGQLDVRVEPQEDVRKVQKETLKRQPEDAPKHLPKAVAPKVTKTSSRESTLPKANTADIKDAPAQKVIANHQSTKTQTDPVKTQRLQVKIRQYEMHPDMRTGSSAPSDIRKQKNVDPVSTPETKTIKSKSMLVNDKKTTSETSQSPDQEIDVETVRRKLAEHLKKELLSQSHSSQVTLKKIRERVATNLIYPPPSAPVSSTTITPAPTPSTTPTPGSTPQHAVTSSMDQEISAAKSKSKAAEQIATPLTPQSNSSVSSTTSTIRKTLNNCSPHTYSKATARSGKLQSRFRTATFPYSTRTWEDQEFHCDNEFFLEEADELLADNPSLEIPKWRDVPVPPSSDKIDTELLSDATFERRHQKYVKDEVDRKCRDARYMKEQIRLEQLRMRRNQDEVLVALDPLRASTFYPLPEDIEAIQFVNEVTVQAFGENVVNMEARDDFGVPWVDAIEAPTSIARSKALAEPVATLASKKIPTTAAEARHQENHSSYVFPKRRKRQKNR
Put plainly: co-IP; Drosophila S2 cells co-transfected with MSL1*-3xHA and MSL2-3xFLAG, 48 hr; extract made with 420 mM NaCl; immunoprecipitation with anti-FLAG, anti-HA or mouse IgG (negative control) magnetic beads in buffer-150 (20 mM Tris-HCl pH 7.4, 150 mM NaCl, 10 mM MgCl2, 0.1% NP-40), overnight at 4 °C; immunoblot with anti-FLAG-HRP. (A western blot detects proteins with antibodies after separation by electrophoresis.)

Experiment [2] has as its target T2, MSL1^WT-3xHA (Drosophila melanogaster) (UniProt P50535).
T2 sequence: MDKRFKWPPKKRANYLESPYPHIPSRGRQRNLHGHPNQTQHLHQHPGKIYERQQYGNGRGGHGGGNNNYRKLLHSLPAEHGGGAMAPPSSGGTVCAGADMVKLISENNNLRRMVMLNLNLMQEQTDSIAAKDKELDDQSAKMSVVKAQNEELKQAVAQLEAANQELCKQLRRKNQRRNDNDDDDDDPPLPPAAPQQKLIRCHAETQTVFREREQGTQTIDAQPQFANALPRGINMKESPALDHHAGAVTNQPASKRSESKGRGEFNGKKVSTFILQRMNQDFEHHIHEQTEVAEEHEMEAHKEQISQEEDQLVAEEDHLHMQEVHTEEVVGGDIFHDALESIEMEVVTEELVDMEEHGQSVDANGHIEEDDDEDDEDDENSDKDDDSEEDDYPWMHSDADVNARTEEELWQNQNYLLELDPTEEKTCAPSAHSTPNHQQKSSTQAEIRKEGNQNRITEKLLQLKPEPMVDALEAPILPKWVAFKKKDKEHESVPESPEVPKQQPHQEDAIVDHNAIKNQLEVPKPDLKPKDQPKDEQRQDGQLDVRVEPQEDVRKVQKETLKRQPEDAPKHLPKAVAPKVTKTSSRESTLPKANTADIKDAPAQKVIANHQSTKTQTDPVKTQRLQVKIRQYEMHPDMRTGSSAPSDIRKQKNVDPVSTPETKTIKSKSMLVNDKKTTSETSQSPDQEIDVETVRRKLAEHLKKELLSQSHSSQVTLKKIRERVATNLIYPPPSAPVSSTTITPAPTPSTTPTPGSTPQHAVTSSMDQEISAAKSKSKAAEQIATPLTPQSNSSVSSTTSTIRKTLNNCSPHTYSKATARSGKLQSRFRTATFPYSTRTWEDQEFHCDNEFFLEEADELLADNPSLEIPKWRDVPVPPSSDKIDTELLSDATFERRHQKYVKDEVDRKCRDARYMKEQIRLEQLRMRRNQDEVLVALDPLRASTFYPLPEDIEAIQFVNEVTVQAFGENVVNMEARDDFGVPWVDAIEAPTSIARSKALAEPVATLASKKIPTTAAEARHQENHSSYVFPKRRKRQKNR
The experiment is described as above.

B1: MSL2-3xFLAG (protein, UniProt P50534 1-773)
chain: MAQTAYLKVTRIAMRSASNLSKRRVEELNSGLGELRQLLSCVVCCQLLVDPYSPKGKRCQHNVCRLCLRGKKHLFPSCTQCEGCSDFKTYEENRMMAAQLLCYKTLCVHLLHSALFGELAGMRPQVARELVPRIKLPPKTTQEFIREGSNISDTFDIFLPQPDLPFLKDMPTSLPAETPPTSAVTTPELPYDHHLNISDIEAEAAATAEQGHFSPLPLLPTGSRMGMLSHAGQIVIATESSESGFMDQAWTDQVDLSGTVSVSKYTNSGNNFAVSYVMPTSATTKFDPQELQIGQVVQMADSTQLAVLAAVEETVETSTQLTVLSTTVEETVETSTQLEVLTSAEEPNEISDQLANLQVEESDEALVEETVEEAEGTSIPSEVVAEHMEEDQHLDVHTSQSPTQTEMEEAVEEHVATKTQLGHVQTELQDAESLQKDFEDAKAAAEEAKEKEKDLHAISAELQKEDSDEPTLKRKRTRTLKASQAAKIEPVPSEVKTKVQSGKGALRRIRGKDKEEKVKPPKPKCRCGISGSSNTLTTCRNSRCPCYKSYNSCAGCHCVCCKNPHKEDYVESDEDDDLEDFEMPKDVPEPMTQSEEPVVAEPRQEENSMAPPDSSAPISLVPLNNLQQSQHPLVLVQNEKGEYQGFNIFQGSKPLDPVTVGFTIRVQLQHTDGFGSLPQYAYIMPTIDPPNPPAPSLSPPPPPAPDREVIEPPAKKFRTSRTRRGRANFSALDTVDELVSGGSRSNSAAGDRSSATDNAHSLFEEIMSGSDDL
For B1, the binding result in experiment [1] and in experiment [2] was “binds” in each case.
